Measured values taken from publication PMC12715529 (ACS Bio & Med Chem Au, 2025).

How the values were obtained:
Format in all cases: cell-based
PC-3 cells [1] = experiment: Colocalisation with Lysotracker Blue DND-22, scatterplot analysis; details: PC-3, 18 h, 37 °C, 100 µM + 100 nM Lysotracker Blue DND-22
A431 cells = experiment: Two-photon fluorescence lifetime imaging (MP FLIM) of living A431 cells; details: A431, overnight 37 °C, 100 μM in 1:99 DMSO/serum-free medium, λex 810 nm
PC-3 cells [2] = experiment: Two-photon fluorescence lifetime imaging (MP FLIM) of living PC-3 cells; details: PC-3, 18 h, 100 µM in 1:99 DMSO:serum-free medium, λex 810 nm
PC-3 cells [3] = experiment: Confocal laser-scanning microscopy, cellular uptake and localization; details: organelle-specific staining / confocal fluorescence
[4] = Blue ROI, overlay a (blue Lysotracker channel vs green)
[5] = Blue ROI, overlay b (blue Lysotracker channel vs red; red λex 488 nm, L-6 561 nm)
[6] = Blue ROI, overlay c (green vs red channel)
[7] = Green ROI, overlay a (blue Lysotracker channel vs green)
[8] = Green ROI, overlay b (blue Lysotracker channel vs red; red λex 488 nm, L-6 561 nm)
[9] = Green ROI, overlay c (green vs red channel)
[10] = Red ROI, overlay a (blue Lysotracker channel vs green)
[11] = Red ROI, overlay b (blue Lysotracker channel vs red; red λex 488 nm, L-6 561 nm)
[12] = Red ROI, overlay c (green vs red channel)

Structure (SMILES): CC(C)C[C@H](NC(=O)[C@H](Cc1c[nH]cn1)NC(=O)CNC(=O)[C@@H](NC(=O)[C@H](C)NC(=O)[C@H](Cc1c[nH]c2ccccc12)NC(=O)[C@H](CCC(N)=O)NC(=O)[C@H](Cc1ccc(I)cc1)N1C(=O)c2ccc3c4c(ccc(c24)C1=O)C(=O)N([C@@H](Cc1ccc(I)cc1)C(=O)ON1C(=O)CCC1=O)C3=O)C(C)C)C(N)=O [L-3]
- Correlation coeff. c1 (PC-3 cells [1]; [4]): 1.00
- Correlation coeff. c2 (PC-3 cells [1]; [4]): 0.84
- Mander’s overlap (PC-3 cells [1]; [4]): 0.72
- Mander’s overlap coeff. k1 (PC-3 cells [1]; [4]): 0.71
- Mander’s overlap coeff. k2 (PC-3 cells [1]; [4]): 0.73
- Pearson’s correlation (PC-3 cells [1]; [4]): 0.63
- Correlation coeff. c1 (PC-3 cells [1]; [5]): 0.99
- Correlation coeff. c2 (PC-3 cells [1]; [5]): 1.00
- Mander’s overlap (PC-3 cells [1]; [5]): 0.73
- Mander’s overlap coeff. k1 (PC-3 cells [1]; [5]): 0.06
- Mander’s overlap coeff. k2 (PC-3 cells [1]; [5]): 8.22
- Pearson’s correlation (PC-3 cells [1]; [5]): 0.71
- Correlation coeff. c1 (PC-3 cells [1]; [6]): 0.75
- Correlation coeff. c2 (PC-3 cells [1]; [6]): 1.00
- Mander’s overlap (PC-3 cells [1]; [6]): 0.63
- Mander’s overlap coeff. k1 (PC-3 cells [1]; [6]): 0.06
- Mander’s overlap coeff. k2 (PC-3 cells [1]; [6]): 7.06
- Pearson’s correlation (PC-3 cells [1]; [6]): 0.92
- Correlation coeff. c1 (PC-3 cells [1]; [7]): 1.00
- Correlation coeff. c2 (PC-3 cells [1]; [7]): 0.82
- Mander’s overlap (PC-3 cells [1]; [7]): 0.71
- Mander’s overlap coeff. k1 (PC-3 cells [1]; [7]): 0.85
- Mander’s overlap coeff. k2 (PC-3 cells [1]; [7]): 0.60
- Pearson’s correlation (PC-3 cells [1]; [7]): 0.61
- Correlation coeff. c1 (PC-3 cells [1]; [8]): 1.00
- Correlation coeff. c2 (PC-3 cells [1]; [8]): 1.00
- Mander’s overlap (PC-3 cells [1]; [8]): 0.79
- Mander’s overlap coeff. k1 (PC-3 cells [1]; [8]): 0.08
- Mander’s overlap coeff. k2 (PC-3 cells [1]; [8]): 7.66
- Pearson’s correlation (PC-3 cells [1]; [8]): 0.71
- Correlation coeff. c1 (PC-3 cells [1]; [9]): 0.75
- Correlation coeff. c2 (PC-3 cells [1]; [9]): 1.00
- Mander’s overlap (PC-3 cells [1]; [9]): 0.62
- Mander’s overlap coeff. k1 (PC-3 cells [1]; [9]): 0.05
- Mander’s overlap coeff. k2 (PC-3 cells [1]; [9]): 7.14
- Pearson’s correlation (PC-3 cells [1]; [9]): 0.92
- Correlation coeff. c1 (PC-3 cells [1]; [10]): 1.00
- Correlation coeff. c2 (PC-3 cells [1]; [10]): 0.84
- Mander’s overlap (PC-3 cells [1]; [10]): 0.79
- Mander’s overlap coeff. k1 (PC-3 cells [1]; [10]): 0.82
- Mander’s overlap coeff. k2 (PC-3 cells [1]; [10]): 0.77
- Pearson’s correlation (PC-3 cells [1]; [10]): 0.75
- Correlation coeff. c1 (PC-3 cells [1]; [11]): 1.00
- Correlation coeff. c2 (PC-3 cells [1]; [11]): 1.00
- Mander’s overlap (PC-3 cells [1]; [11]): 0.76
- Mander’s overlap coeff. k1 (PC-3 cells [1]; [11]): 0.10
- Mander’s overlap coeff. k2 (PC-3 cells [1]; [11]): 5.78
- Pearson’s correlation (PC-3 cells [1]; [11]): 0.79
- Correlation coeff. c1 (PC-3 cells [1]; [12]): 0.74
- Correlation coeff. c2 (PC-3 cells [1]; [12]): 1.00
- Mander’s overlap (PC-3 cells [1]; [12]): 0.64
- Mander’s overlap coeff. k1 (PC-3 cells [1]; [12]): 0.08
- Mander’s overlap coeff. k2 (PC-3 cells [1]; [12]): 5.00
- Pearson’s correlation (PC-3 cells [1]; [12]): 0.95
- FLIM first lifetime distribution (τ1) (A431 cells): 0.95 ± 0.06 ns
- FLIM second lifetime distribution (τ2) (A431 cells): 2.16 ± 0.08 ns
- FLIM τ1 (PC-3 cells [2]): 2.66±0.04 ns
- FLIM τ2 (PC-3 cells [2]): 0.00±0.00 ns
- subcellular localization (PC-3 cells [3]): localize more in the lysosomes of PC-3 cells than in the nucleus or cytosol
